Earlier results in US9592004B2, “Methods and systems for managing epilepsy and other neurological disorders” (CYBERONICS, INC., priority 2005, dated 2017).
For at least one compound, name, drawing or mass did not settle the structure.

Test system: seizures

CCC1(c2ccccc2)C(=O)NC(=O)NC1=O [phenobarbital, Phenobarbital]
minimum plasma concentration for prophylaxis against febrile convulsions: about 15 μg/ml
